According to US6428967:
Results are given in words; binding and its absence hold for the method and conditions named. Some results given as binding are weak or reduced against the parent protein; the word gives no strength. For some assays here: Sequences can lack the tags named with a protein.

Sequences of proteins named here, by UniProt entry; tags and fusion partners are left off. A change or cut given only in a name is not applied to a line headed by its entry.
UniProt Q924X6: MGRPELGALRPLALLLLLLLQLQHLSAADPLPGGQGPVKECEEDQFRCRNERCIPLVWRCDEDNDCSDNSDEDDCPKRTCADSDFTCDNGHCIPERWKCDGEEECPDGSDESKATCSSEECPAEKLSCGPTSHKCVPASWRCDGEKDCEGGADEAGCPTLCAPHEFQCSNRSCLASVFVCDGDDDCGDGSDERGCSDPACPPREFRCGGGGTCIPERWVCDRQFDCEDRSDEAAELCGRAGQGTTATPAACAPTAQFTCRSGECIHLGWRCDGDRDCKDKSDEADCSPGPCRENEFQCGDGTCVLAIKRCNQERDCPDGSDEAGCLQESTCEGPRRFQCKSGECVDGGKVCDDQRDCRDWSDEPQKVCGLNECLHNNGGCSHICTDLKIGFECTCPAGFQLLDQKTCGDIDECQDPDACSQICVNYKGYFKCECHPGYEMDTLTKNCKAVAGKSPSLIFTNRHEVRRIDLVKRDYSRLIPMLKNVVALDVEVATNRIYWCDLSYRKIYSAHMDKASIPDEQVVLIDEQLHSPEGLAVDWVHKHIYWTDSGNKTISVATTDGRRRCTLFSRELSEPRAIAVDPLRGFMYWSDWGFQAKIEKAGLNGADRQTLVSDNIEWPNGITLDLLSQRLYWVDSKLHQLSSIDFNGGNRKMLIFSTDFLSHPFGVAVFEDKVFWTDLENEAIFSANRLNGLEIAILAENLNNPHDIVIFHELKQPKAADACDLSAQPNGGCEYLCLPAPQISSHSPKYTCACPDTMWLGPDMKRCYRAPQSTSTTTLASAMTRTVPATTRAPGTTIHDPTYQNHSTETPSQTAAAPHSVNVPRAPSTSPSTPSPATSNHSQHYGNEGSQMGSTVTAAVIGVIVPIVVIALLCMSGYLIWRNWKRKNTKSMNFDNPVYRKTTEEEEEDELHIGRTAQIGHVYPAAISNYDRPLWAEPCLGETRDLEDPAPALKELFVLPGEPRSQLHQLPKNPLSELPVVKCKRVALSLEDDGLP
UniProt Q07954: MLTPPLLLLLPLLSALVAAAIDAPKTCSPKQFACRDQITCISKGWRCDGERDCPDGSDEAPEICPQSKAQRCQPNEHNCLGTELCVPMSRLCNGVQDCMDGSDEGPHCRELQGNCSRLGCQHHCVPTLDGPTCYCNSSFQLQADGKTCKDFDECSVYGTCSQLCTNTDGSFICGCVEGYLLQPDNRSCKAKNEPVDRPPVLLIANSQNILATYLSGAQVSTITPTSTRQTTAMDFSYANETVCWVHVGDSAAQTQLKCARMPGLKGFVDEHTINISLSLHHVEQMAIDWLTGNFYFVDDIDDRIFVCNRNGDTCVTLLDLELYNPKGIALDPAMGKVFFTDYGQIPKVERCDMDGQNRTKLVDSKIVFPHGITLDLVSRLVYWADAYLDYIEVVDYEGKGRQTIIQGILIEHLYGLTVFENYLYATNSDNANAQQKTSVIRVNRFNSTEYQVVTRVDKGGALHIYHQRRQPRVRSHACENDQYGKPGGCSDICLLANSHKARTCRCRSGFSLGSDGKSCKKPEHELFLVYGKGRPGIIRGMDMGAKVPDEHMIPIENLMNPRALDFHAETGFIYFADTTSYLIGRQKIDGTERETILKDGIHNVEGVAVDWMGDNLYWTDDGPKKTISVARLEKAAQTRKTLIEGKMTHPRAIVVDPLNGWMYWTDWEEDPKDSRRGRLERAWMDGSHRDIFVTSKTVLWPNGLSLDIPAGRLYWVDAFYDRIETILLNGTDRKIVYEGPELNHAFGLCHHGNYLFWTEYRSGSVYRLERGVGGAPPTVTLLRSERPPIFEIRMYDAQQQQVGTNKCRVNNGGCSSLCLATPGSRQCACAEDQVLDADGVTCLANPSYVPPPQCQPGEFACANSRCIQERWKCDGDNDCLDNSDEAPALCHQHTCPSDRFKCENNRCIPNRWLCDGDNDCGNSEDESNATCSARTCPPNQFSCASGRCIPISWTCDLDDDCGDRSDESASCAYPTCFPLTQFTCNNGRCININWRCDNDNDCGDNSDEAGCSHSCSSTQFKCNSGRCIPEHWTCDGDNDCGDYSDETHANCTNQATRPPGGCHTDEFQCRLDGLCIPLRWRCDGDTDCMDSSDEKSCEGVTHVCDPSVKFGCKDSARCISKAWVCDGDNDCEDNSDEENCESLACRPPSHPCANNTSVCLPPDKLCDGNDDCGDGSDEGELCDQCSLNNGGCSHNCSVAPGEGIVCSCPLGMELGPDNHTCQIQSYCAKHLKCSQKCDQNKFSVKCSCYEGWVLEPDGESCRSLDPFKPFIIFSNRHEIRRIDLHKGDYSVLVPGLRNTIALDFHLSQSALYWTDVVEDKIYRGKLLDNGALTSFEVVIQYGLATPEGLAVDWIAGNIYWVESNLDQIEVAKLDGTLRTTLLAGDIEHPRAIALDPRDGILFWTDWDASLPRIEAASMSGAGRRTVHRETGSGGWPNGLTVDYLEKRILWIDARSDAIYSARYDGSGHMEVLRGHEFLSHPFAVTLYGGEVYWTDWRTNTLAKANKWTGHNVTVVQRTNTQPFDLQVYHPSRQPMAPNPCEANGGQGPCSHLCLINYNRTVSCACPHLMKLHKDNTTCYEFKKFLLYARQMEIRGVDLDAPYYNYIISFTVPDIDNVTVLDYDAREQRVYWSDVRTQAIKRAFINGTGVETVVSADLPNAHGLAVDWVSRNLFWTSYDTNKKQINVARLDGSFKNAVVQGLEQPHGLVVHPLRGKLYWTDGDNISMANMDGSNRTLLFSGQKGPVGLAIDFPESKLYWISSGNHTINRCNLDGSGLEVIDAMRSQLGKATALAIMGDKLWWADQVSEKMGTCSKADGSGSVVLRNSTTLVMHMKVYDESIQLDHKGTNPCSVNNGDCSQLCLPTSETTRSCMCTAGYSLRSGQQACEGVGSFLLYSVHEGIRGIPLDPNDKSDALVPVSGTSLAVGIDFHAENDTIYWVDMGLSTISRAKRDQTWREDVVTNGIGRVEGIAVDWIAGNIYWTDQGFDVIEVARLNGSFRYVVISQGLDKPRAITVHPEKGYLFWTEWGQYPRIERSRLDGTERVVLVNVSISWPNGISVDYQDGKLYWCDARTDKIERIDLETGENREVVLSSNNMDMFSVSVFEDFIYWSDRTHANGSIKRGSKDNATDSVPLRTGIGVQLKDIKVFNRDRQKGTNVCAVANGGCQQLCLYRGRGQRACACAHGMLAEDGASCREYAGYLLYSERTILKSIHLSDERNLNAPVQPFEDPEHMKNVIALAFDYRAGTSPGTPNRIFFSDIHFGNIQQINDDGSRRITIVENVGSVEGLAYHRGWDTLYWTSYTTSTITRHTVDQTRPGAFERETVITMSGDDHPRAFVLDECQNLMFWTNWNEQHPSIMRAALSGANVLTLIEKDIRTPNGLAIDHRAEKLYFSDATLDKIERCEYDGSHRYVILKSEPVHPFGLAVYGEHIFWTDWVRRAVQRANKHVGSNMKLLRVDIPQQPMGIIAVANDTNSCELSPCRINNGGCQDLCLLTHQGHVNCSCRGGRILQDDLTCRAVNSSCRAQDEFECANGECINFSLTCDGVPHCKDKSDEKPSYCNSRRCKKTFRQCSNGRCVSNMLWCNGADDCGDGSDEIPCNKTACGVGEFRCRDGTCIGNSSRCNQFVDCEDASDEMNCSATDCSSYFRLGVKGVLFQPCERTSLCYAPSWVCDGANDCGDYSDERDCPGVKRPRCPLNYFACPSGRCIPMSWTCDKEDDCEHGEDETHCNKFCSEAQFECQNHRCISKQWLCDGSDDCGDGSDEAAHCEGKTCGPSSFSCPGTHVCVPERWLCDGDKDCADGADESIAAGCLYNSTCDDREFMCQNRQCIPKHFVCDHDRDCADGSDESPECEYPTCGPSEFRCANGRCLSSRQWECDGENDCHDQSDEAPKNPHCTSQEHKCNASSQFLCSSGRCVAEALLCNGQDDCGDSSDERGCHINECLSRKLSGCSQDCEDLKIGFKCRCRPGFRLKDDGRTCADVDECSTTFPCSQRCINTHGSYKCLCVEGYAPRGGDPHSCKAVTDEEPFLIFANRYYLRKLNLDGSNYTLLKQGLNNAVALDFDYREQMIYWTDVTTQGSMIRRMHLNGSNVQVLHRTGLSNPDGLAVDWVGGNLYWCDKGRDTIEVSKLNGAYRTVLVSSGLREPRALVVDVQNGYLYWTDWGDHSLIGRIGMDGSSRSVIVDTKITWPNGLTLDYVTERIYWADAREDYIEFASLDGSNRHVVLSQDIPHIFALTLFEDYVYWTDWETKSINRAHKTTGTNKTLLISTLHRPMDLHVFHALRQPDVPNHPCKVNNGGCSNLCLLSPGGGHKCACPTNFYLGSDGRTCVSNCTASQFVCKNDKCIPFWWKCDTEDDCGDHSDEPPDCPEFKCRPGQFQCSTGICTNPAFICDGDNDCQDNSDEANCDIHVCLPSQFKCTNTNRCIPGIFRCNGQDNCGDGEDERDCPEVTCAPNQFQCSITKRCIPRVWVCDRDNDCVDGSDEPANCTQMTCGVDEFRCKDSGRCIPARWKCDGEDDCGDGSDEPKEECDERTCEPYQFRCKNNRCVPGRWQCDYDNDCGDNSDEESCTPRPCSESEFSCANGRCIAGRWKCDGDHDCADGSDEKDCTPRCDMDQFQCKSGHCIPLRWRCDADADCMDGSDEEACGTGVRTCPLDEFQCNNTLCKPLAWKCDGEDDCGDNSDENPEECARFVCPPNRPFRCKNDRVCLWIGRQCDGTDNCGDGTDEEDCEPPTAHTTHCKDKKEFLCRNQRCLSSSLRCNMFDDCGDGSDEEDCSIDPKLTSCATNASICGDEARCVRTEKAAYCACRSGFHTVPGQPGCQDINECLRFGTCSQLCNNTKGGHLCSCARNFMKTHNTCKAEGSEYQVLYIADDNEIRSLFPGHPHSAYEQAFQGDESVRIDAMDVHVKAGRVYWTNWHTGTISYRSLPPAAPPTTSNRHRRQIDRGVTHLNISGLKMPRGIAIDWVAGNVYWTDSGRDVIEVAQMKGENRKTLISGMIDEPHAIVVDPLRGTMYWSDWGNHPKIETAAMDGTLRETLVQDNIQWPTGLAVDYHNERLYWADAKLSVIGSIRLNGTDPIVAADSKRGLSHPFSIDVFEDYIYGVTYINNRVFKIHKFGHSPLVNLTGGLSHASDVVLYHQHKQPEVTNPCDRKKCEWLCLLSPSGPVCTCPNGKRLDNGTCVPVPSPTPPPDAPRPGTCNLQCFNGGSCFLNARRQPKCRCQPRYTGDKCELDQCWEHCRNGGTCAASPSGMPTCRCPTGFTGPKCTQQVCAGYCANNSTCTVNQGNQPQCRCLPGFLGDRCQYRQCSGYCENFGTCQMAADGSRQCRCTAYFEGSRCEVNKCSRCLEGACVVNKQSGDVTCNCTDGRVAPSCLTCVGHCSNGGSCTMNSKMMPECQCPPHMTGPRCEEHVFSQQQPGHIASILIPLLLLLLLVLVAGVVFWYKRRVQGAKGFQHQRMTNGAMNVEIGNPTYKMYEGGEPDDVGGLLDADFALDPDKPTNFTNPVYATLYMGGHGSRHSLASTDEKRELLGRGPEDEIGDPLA

What was measured:
[1] = target: T1, LR11 cytoplasmic tail LexA fusion protein (LR11 human) (human); test: yeast two-hybrid, told again
T1 sequence: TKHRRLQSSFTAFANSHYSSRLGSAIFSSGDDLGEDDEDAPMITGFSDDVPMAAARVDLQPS

[2] = target: VLDL receptor cytoplasmic tail LexA fusion protein (VLDLR mouse) (mouse); test: yeast two-hybrid, told again
[3] = target: ApoER2 cytoplasmic tail without its alternatively spliced insert, LexA fusion protein (ApoER2- mouse) (mouse) (UniProt Q924X6); test: yeast two-hybrid, told again
[4] = target: LRP complete cytoplasmic tail LexA fusion protein (LRP human) (human) (UniProt Q07954); test: yeast two-hybrid, told again
[5] = target: T2, Megalin complete cytoplasmic tail LexA fusion protein (Meg human) (human) (UniProt P98164); test: yeast two-hybrid, told again
T2 sequence: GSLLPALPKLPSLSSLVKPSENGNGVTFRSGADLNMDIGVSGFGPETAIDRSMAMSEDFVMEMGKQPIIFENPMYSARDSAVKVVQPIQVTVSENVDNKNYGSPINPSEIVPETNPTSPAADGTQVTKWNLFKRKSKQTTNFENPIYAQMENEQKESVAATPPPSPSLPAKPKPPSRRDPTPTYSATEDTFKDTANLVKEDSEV

[6] = target: ApoER2 cytoplasmic tail with its alternatively spliced insert, LexA fusion protein (ApoER2+ mouse) (mouse) (UniProt Q924X6); test: yeast two-hybrid, told again
[7] = target: LDL receptor cytoplasmic tail LexA fusion protein (LDLR human) (human) (UniProt P01130); test: yeast two-hybrid, told again
[8] = target: T1, LR11 cytoplasmic tail LexA fusion protein (LR11 human) (human); test: yeast two-hybrid, LexA tail bait against B42AD-Dab1
[9] = target: VLDL receptor cytoplasmic tail LexA fusion protein (VLDLR mouse) (mouse); test: as above
[10] = target: ApoER2 cytoplasmic tail without its alternatively spliced insert, LexA fusion protein (ApoER2- mouse) (mouse) (UniProt Q924X6); test: as above
[11] = target: LRP complete cytoplasmic tail LexA fusion protein (LRP human) (human) (UniProt Q07954); test: as above
[12] = target: T2, Megalin complete cytoplasmic tail LexA fusion protein (Meg human) (human); test: as above
[13] = target: T3, MegA, part of the Megalin cytoplasmic tail, LexA fusion protein (MegA human) (human) (UniProt P98164); test: as above
T3 sequence: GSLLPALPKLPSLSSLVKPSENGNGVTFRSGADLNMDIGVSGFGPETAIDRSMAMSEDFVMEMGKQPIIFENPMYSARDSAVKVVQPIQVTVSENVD

[14] = target: ApoER2 cytoplasmic tail with its alternatively spliced insert, LexA fusion protein (ApoER2+ mouse) (mouse) (UniProt Q924X6); test: as above
[15] = target: LRPB, part of the LRP cytoplasmic tail, LexA fusion protein (LRPB human) (human) (UniProt Q07954); test: as above
[16] = target: LDL receptor cytoplasmic tail LexA fusion protein (LDLR human) (human) (UniProt P01130); test: as above
[17] = target: ApoER2 cytoplasmic tail with its alternatively spliced insert, LexA fusion protein (ApoER2+ mouse) (mouse) (UniProt Q924X6); test: yeast two-hybrid, LexA tail bait against prey

Measured: binding

B1: Disabled-1 (Dab1), two-hybrid prey in pB42AD (protein, UniProt P97318-2 1-555, looked up, not shown: large carriers)
chain: MSTETELQVAVKTSAKKDSRKKGQDRSEATLIKRFKGEGVRYKAKLIGIDEVSAARGDKLCQDSMMKLKGVVAGARSKGEHKQKIFLTISFGGIKIFDEKTGALQHHHAVHEISYIAKDITDHRAFGYVCGKEGNHRFVAIKTAQAAEPVILDLRDLFQLIYELKQREELEKKAQKDKQCEQAVYQTILEEDVEDPVYQYIVFEAGHEPIRDPETEENIYQVPTSQKKEGVYDVPKSQPVSAVTQLELFGDMSTPPDITSPPTPATPGDAFLPSSSQTLPGSADVFGSMSFGTAAVPSGYVAMGAVLPSFWGQQPLVQQQIAMGAQPPVAQVIPGAQPIAWGQPGLFPATQQAWPTVAGQFPPAAFMPTQTVMPLAAAMFQGPLTPLATVPGTNDSARSSPQSDKPRQKMGKESFKDFQMVQPPPVPSRKPDQPSLTCTSEAFSSYFNKVGVAQDTDDCDDFDISQLNLTPVTSTTPSTNSPPTPAPRQSSPSKSSASHVSDPTADDIFEEGFESPSKSEEQEAPDGSQASSTSDPFGEPSGEPSGDNISPQDGS
not listed: [17]
binds: all other assays above

B2: JIP-1 (protein, not shown: large carriers)
chain: MAERESGLGGGAASPPAASPFLGLHIASPPNFRLTHDISLEEFEDEDLSEITDECGISLQCKDTLSLRPPRAGLLSAGSSGSAGSRLQAEMLQMDLIDAAGDTPGAEDDEEEEDDELAAQRPGVGPPKAESNQDPAPRSQGQGPGTGSGDTYRPKRPTTLNLFPQVPRSQDTLNNNSLGKKHSWQDRVSRSSSPLKTGEQTPPHEHICLSDELPPQGSPVPTQDRGTSTDSPCRRSAATQMAPPSGPPATAPGGRGHSHRDRIHYQADVRLEATEEIYLTPVQRPPDPAEPTSTFMPPTESRMSVSSDPDPAAYSVTAGRPHPSISEEDEGFDCLSSPERAEPPGGGWRGSLGEPPPPPRASLSSDTSALSYDSVKYTLVVDEHAQLELVSLRPCFGDYSDESDSATVYDNCASASSPYESAIGEEYEEAPQPRPPTCLSEDSTPDEPDVFSKKFLNVFMSGRSRSSSAESFGLFSCVINGEEHEQTHRAIFRFVPRHEDELELEVDDPLLVELQAEDYWYEAYNMRTGARGVFPAYYAIEVTKEPEHMAALAKNSCVLEISVRGVKIGVKADDALEAKGNKCSHFFQLKNISFCGYHPKNNKYFGFITKHPADHRFACHVFVSEDSTKALAESVGRAFQQFYKQFVEYTCPTEDIYLE
binds: [17]
